From PMC8844928
Tags and fusion partners may be left off the protein sequences shown.

Biological target: T1, LsrB (UniProt Q92PZ7)
T1 sequence (looked up): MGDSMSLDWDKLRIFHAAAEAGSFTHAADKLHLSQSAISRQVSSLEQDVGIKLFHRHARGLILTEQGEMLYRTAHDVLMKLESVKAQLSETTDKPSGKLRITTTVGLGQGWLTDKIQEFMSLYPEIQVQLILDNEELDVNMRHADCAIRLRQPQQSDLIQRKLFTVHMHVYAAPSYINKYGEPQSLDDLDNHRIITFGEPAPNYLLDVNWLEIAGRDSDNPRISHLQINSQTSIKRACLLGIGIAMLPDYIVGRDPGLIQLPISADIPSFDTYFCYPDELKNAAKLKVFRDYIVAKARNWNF
Experiment: EMSA
Conditions: 1 uM LsrB, 100 nM probe; EMSA: 100 nM radiolabeled probe, 0 or 1 uM LsrB; recombinant protein; residues 1-302; protein details: N-terminal 10xHis (pET16b, Factor Xa site); label: radiolabeled; probe letters rebuilt from the primers and the genome

Sequence: TCTAGAGATGCATCAGCTGAGTGTGGTATGCTGCTTTTTTGGGCTATCGGCAATCATTTAATATGCATGACAGCCATGCCGTTTGCGCATCGCTGCTCATTTTTGCAGCGCACAAGGATTCGGTTTGCGAAGAGCTTCGCTTTCCCTTGAAAAGAGCCGAGGAATAACAAAGGCTTACGCAGGCTTTTGGCAATTGCTCACAAATCGGGCAATTGAACGGATCGTCAGAAGTTCCAGTTTCTCGCTTTAGCGACGATGTAATCGCGGAAGACTTTCAGCTTCGCTGCGTTCTTCAGTTCGTCCGGATAGCAGAAATAGGTATCGAAAGAGGGGATATCGGCGCTTATCGGCAGAATTCGACG (double strand) [PabcR1]
- binding result: binds
